Data: paper doi:10.1101/2025.10.24.684325
These are yes or no findings as the source states them, for the method shown. Binding seen in cells or lysates may run through a third protein. A yes stands for co-enrichment or nearness to the bait. Other partners may have been found. Where a sequence is shown, tags or fusion partners need not be part of it.

By UniProt entry, the sequences of proteins in these tests, tags left out.
UniProt P08752: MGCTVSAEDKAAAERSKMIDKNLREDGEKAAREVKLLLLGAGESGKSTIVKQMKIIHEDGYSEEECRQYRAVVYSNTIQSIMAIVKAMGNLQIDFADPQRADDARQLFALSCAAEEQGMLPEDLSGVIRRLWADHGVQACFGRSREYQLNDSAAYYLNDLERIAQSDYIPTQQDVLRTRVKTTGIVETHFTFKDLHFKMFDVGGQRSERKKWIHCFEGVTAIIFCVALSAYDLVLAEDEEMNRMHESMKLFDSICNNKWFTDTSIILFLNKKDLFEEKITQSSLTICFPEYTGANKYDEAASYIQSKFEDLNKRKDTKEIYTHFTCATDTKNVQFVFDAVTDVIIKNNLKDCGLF

T1: Flag-TMEM100 (transmembrane protein 100) (UniProt Q9CQG9)
T1 sequence: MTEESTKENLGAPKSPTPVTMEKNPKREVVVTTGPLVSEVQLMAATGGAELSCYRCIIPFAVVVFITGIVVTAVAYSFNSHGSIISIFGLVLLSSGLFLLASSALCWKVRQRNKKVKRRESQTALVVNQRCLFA


Target: T1, Flag-TMEM100 (transmembrane protein 100)
Test: affinity purification with mass spectrometry

| binding | Molecule |
| --- | --- |
| binds | GNAI2 (from UniProt P08752 1-355) |
| binds | PRDX1 (protein, UniProt P35700 1-199) MSSGNAKIGYPAPNFKATAVMPDGQFKDISLSEYKGKYVVFFFYPLDFTFVCPTEIIAFSDRADEFKKLNCQVIGASVDSHFCHLAWINTPKKQGGLGPMNIPLISDPKRTIAQDYGVLKADEGISFRGLFIIDDKGILRQITINDLPVGRSVDEIIRLVQAFQFTDKHGEVCPAGWKPGSDTIKPDVNKSKEYFSKQK |
